According to US4985406A (Institut National de la Sante et de La Recherche Medicale …, priority 1987, dated 1991):
For part of these data: Part of at least one peptide drawing is inferred or uncertain, most often the ends. For part of these data: For at least one compound, name, drawing or mass did not settle the structure. Starred links: 1 amine or outer side, 2 acyl side, 3 side chain; linkers in the order of their positions; H or OH if unused. Positions of bridges follow the written chain, without caps; N, C: chain ends. Non-standard residues stand in square brackets, D forms with d. Residues, ends and D or L forms follow the SMILES beside them. X1 = CC(C)(C)OC(=O)N[C@H](CCC(=O)[*:1])C(=O)[*:2]; sY = N[C@@H](Cc1ccc(OS(=O)(=O)O)cc1)C(=O)O; Nle = CCCC[C@H](N)C(=O)O

Experiments:
[1] = target: cholecystokininergic receptors of the central nervous system (guinea-pig brain cortex); assay: Binding test, competition with [3H]BOC-[NLe28,31]CCK27-33 on guinea-pig brain cortex
[2] = target: T1, peripheral cholecystokininergic receptors (guinea-pig pancreatic acini) (Cavia porcellus, UniProt Q63931); assay: Binding test, competition with [3H]BOC-[NLe28,31]CCK27-33 on guinea-pig pancreatic acini; conditions: [3H]BOC-[NLe28,31]CCK27-33 at 0.5 nM
T1 construct: on guinea-pig brain cortex and guinea-pig pancreatic acini; from tissue; host or cells: guinea-pig pancreatic acini
T1 sequence (Q63931 1-430): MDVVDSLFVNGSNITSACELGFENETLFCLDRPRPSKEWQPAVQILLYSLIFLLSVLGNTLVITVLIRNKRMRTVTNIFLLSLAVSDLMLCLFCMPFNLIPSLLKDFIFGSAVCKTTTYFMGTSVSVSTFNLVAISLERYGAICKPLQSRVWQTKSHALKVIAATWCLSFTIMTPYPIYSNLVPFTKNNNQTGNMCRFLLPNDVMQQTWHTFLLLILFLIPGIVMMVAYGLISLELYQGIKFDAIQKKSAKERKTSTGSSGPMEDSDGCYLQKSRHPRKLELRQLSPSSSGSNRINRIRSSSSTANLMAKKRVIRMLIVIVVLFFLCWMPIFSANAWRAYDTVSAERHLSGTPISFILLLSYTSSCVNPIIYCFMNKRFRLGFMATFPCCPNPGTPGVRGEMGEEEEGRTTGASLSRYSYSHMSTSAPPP

Compound	Ki ([1]; [3H]BOC-[NLe28,31]CCK27-33 at 0.2 nM, guinea-pig brain cortex) [nM]	Selectivity factor ([1]; ratio given as drawing 11, matches KI pancreatic acini / KI cortex)	Ki [2] [nM]
CCCC[C@H](NC(=O)[C@H](Cc1c[nH]c2ccccc12)NC(=O)[C@H]1CCCCNC(=O)[C@H](NC(=O)OC(C)(C)C)CCC(=O)N[C@@H](Cc2ccc(O)cc2)C(=O)N[C@@H](CCCC)C(=O)N1)C(=O)N[C@@H](CC(=O)O)C(=O)N[C@@H](Cc1ccccc1)C(N)=O [Example 15] (Y[Nle][dK]W[Nle]DF-NH2; linker N-3 via X1)	4.35	197	–
CCCC[C@H](NC(=O)[C@H](Cc1c[nH]c2ccccc12)NC(=O)[C@H]1CCCCNC(=O)[C@H](NC(=O)OC(C)(C)C)CCC(=O)N[C@@H](Cc2ccc(OS(=O)(=O)O)cc2)C(=O)N[C@@H](CCCC)C(=O)N1)C(=O)N[C@@H](CC(=O)O)C(=O)N[C@@H](Cc1ccccc1)C(N)=O [Example 16] ([sY][Nle][dK]W[Nle]DF-NH2; linker N-3 via X1; C-terminus assumed)	–	–	970
